Consider 24 compounds from PubChem BioAssay AID256 (DTP/NCI, 2004).

The list does not hold the whole screen: it gathers tests that were run many times, whatever their T/C, doses with no T/C, and many T/C values between a quarter and a half above the control. Further doses and runs are listed elsewhere. T/C is the treated group as % of the vehicle group. Some entries give survivors of the animals treated and no T/C: the source holds a T/C of zero for them, seemingly a mark for toxic or unscored doses. Some survivor counts are full or nearly so, which does not show that the dose was tolerated: the source hardly ever lists a survival T/C far under the control, and the zero likely stands for such cases as well. Survivors were counted at the toxicity check, usually on the fifth day, unless a day is given; later deaths do not show. Schedules are NCI's codes, taken here to give the interval after Q, in days (D) or hours (H), and the number of doses after X. Where survival is the endpoint, this PubChem deposit counts one and a half times the control or more as active, and values a quarter to a half above the control carry no call in these data; other NCI protocols may use other cut-offs. Some entries were tested several times; the values are given in rising order. Some T/C values are followed by the survivors on the day toxicity was checked, most often the fifth; where none is given, no animal had died by that day.

The subject of the test is CD2F1 mice, L1210 leukemia ip, survival T/C. In words: NCI In Vivo Anticancer Drug Screen. Data for tumor model L1210 Leukemia (intraperitoneal) in CD2F1 (CDF1) mice. The conditions noted are these: higher T/C = longer survival. In a few lines: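 Read-out first: treated-group measurement over vehicle-control measurement, expressed as a ratio. Animals bore a transplanted tumor line and were dosed with compound or vehicle.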

Where [1] appears, read: T/C endpoint: mean survival time, dose: 400.0 mg/kg/injection, schedule: Q01DX009 (ip), vehicle: saline with Tween-80.
Where [2] appears, read: T/C endpoint: mean survival time, dose: 5.0 mg/kg/injection, schedule: Q01DX009 (ip), vehicle: saline.
The mark [3] stands for this setting: T/C endpoint: mean survival time, dose: 200.0 mg/kg/injection, schedule: Q01DX001 (ip), vehicle: saline.
[4] abbreviates: T/C endpoint: mean survival time, dose: 400.0 mg/kg/injection, schedule: Q01DX001 (ip), vehicle: saline.
[5] abbreviates: T/C endpoint: mean survival time, dose: 20.0 mg/kg/injection, schedule: Q04DX003 (ip), vehicle: saline with Tween-80.
Where [6] appears, read: T/C endpoint: mean survival time, dose: 100.0 mg/kg/injection, schedule: Q04DX003 (ip), vehicle: saline with Tween-80.
Setting [7] is: T/C endpoint: mean survival time, dose: 200.0 mg/kg/injection, schedule: Q04DX003 (ip), vehicle: saline with Tween-80.
[8] abbreviates: T/C endpoint: mean survival time, dose: 400.0 mg/kg/injection, schedule: Q04DX003 (ip), vehicle: saline with Tween-80.
[9] abbreviates: T/C endpoint: mean survival time, dose: 25.0 mg/kg/injection, schedule: Q01DX009 (ip), vehicle: saline.

As to `CCCC(=O)Oc1ccc(/C=N/NC(N)=S)nc1`, the T/C by setting is: (T/C endpoint: mean survival time, dose: 50.0 mg/kg/injection, schedule: Q01DX009 (ip), vehicle: saline with Tween-80) 145 % of control; (T/C endpoint: mean survival time, dose: 200.0 mg/kg/injection, schedule: Q04DX002 (ip), vehicle: saline with Tween-80) 126 % of control; (T/C endpoint: mean survival time, dose: 400.0 mg/kg/injection, schedule: Q04DX002 (ip), vehicle: saline with Tween-80) 134 % of control; (T/C endpoint: mean survival time, dose: 600.0 mg/kg/injection, schedule: Q04DX003 (ip), vehicle: saline with Tween-80) 129 % of control; (T/C endpoint: mean survival time, dose: 800.0 mg/kg/injection, schedule: Q04DX002 (ip), vehicle: saline with Tween-80) 146 % of control; (T/C endpoint: mean survival time, dose: 900.0 mg/kg/injection, schedule: Q04DX003 (ip), vehicle: saline with Tween-80) 140 % of control. Also, the T/C is 128 and 132 % of control (T/C endpoint: median survival time, dose: 25.0 mg/kg/injection, schedule: Q01DX009 (ip), vehicle: saline with Tween-80); 128 % of control (T/C endpoint: median survival time, dose: 50.0 mg/kg/injection, schedule: Q01DX009 (ip), vehicle: saline with Tween-80); 125 % of control (T/C endpoint: median survival time, dose: 277.78 mg/kg/injection, schedule: Q01DX005 (ip), vehicle: saline with Tween-80). The survivor count under setting [1] is given as 6 of 6 and the survivor count (T/C endpoint: mean survival time, dose: 600.0 mg/kg/injection, schedule: Q01DX009 (ip), vehicle: saline with Tween-80) is on record as 5 of 6.
For `Cc1cc2nc(N)[nH]c2cc1C`, the survivor count by setting is: (T/C endpoint: mean survival time, dose: 100.0 mg/kg/injection, schedule: Q04DX002 (ip), vehicle: saline + alcohol) 1 of 3; (T/C endpoint: mean survival time, dose: 200.0 mg/kg/injection, schedule: Q04DX002 (ip), vehicle: saline + alcohol) 0 of 3; (T/C endpoint: mean survival time, dose: 400.0 mg/kg/injection, schedule: Q04DX002 (ip), vehicle: saline + alcohol) 0 of 3.
Take `CN(N=O)C(N)=O`: the T/C runs as follows: (T/C endpoint: mean survival time, dose: 5.0 mg/kg/injection, schedule: Q01DX007 (ip), vehicle: saline) 141 % of control; under setting [2], 141 % of control; (T/C endpoint: mean survival time, dose: 10.0 mg/kg/injection, schedule: Q03DX003 (ip), vehicle: saline) 126 % of control; (T/C endpoint: mean survival time, dose: 10.0 mg/kg/injection, schedule: Q04DX003 (ip), vehicle: saline) 125 % of control; (T/C endpoint: mean survival time, dose: 20.0 mg/kg/injection, schedule: Q01DX009 (ip), vehicle: saline) 133 % of control [5 of 6 alive]; (T/C endpoint: mean survival time, dose: 20.0 mg/kg/injection, schedule: Q04DX003 (ip), vehicle: saline) 142 % of control. For the same compound, the T/C reads like this: (T/C endpoint: median survival time, dose: 3.0 mg/kg/injection, schedule: Q01DX009 (ip), vehicle: saline + alcohol) 130 % of control; (T/C endpoint: median survival time, dose: 6.0 mg/kg/injection, schedule: Q01DX009 (ip), vehicle: saline + alcohol) 148 % of control; (T/C endpoint: median survival time, dose: 21.6 mg/kg/injection, schedule: Q04DX003 (ip), vehicle: saline + alcohol) 130 % of control; (T/C endpoint: median survival time, dose: 24.0 mg/kg/injection, schedule: Q04DX003 (ip), vehicle: saline) 130 % of control; (T/C endpoint: median survival time, dose: 25.0 mg/kg/injection, schedule: Q01DX009 (ip), vehicle: saline + alcohol) 148 % of control [5 of 6 alive].
For `[Cl][Pt+2]([Cl])([Cl])[Cl].[NH-]Cc1ccccc1C[NH-]`, the survivor count (T/C endpoint: mean survival time, dose: 80.0 mg/kg/injection, schedule: Q04DX003 (ip), vehicle: saline with Tween-80) is recorded as 4 of 6.
For the compound `CCN(C)c1cc2c3c(c1)CCCN3CCC2`, the survivor count is, setting by setting: (T/C endpoint: mean survival time, dose: 100.0 mg/kg/injection, schedule: Q01DX001 (ip), vehicle: saline) 0 of 6; under setting [3], 0 of 6; under setting [4], 0 of 6.
On to `CC(=O)OC(C)(C)/C=C/C(=O)[C@](C)(O)[C@H]1[C@H](O)C[C@@]2(C)[C@@H]3CC=C4[C@@H](CC[C@H](O)C4(C)C)[C@]3(CO)C(=O)C[C@]12C`, for which the survivor count reads like this: (T/C endpoint: mean survival time, dose: 5.0 mg/kg/injection, schedule: Q04DX003 (ip), vehicle: saline with Tween-80) 0 of 6; (T/C endpoint: mean survival time, dose: 10.0 mg/kg/injection, schedule: Q04DX003 (ip), vehicle: saline with Tween-80) 0 of 6; under setting [5], 0 of 6; under setting [6], 0 of 6; under setting [7], 0 of 6; under setting [8], 0 of 6.
Take `C[CH2][Pb]([CH2]C)([CH2]C)[O]C(=O)C=C1CCCC1`: the survivor count under setting [5] was 0 of 6.
`Cc1ccc([N+](=O)[O-])cc1NC(=O)NNC(=O)CNC(=O)Nc1ccc(F)cc1`: the survivor count (T/C endpoint: mean survival time, dose: 100.0 mg/kg/injection, schedule: Q01DX009 (ip), vehicle: saline with Tween-80) is listed as 6 of 6.
For the compound `C=CC1C[N+]2(SS(=O)(=O)O)CCC1CC2C(O)c1ccnc2ccc(OC)cc12` (centres undefined), under “T/C endpoint: mean survival time, dose: 300.0 mg/kg/injection, schedule: Q04DX003 (ip), vehicle: saline”, the survivor count is on record as 4 of 6.
On to `CCCCCCC[CH2][Sn][CH2]CCCCCCC.Nc1ncnc2c1ncn2C1OC(CO)C2[OH+][OH+]C21` (centres undefined), for which the survivor count is, setting by setting: (T/C endpoint: mean survival time, dose: 50.0 mg/kg/injection, schedule: Q01DX005 (ip), vehicle: other) 5 of 6; (T/C endpoint: mean survival time, dose: 100.0 mg/kg/injection, schedule: Q01DX005 (ip), vehicle: other) 0 of 6; (T/C endpoint: mean survival time, dose: 200.0 mg/kg/injection, schedule: Q01DX005 (ip), vehicle: other) 0 of 6.
Consider `C[n+]1cccc(NC(=O)c2ccc(NC(=O)c3ccc(C(=O)Nc4ccc(NC(=N)N)cc4)cc3)cc2)c1`, for which the T/C under setting [2] was 143 and 149 % of control.
For the compound `COc1ccc(C(C)=O)cc1[N+](=O)[O-]`, the survivor count under setting [1] is 3 of 6.
On to `O=C(O)c1cc2ccccc2oc1=O`, for which the survivor count under setting [6] is recorded as 0 of 3.
Turning to `[Cl][Pt+2][Cl].[NH-]CCN(CCN)CCN`, the survivor count (T/C endpoint: mean survival time, dose: 50.0 mg/kg/injection, schedule: Q04DX003 (ip), vehicle: saline with Tween-80) is 0 of 6; the survivor count under setting [6] is 0 of 6; the survivor count under setting [7] is recorded as 0 of 6.
As for `CCC(CC)n1c(C)cc(=O)n1C(CC)CC`, the survivor count reads like this: (T/C endpoint: mean survival time, dose: 40.0 mg/kg/injection, schedule: Q01DX001 (ip), vehicle: saline) 2 of 6; (T/C endpoint: mean survival time, dose: 80.0 mg/kg/injection, schedule: Q01DX001 (ip), vehicle: saline) 0 of 6.
As for `COc1ccccc1C(=O)NS(=O)(=O)c1ccc(Cl)cc1`, the survivor count (T/C endpoint: mean survival time, dose: 400.0 mg/kg/injection, schedule: Q01DX009 (ip), vehicle: acetone) was 0 of 6.
Turning to `CCCN1CCc2cc3c(cc2C1)OCO3`, the survivor count is 0 of 6 under setting [3] and 0 of 6 under setting [4].
Turning to `O=C(N/N=C\c1c(Cl)cccc1Cl)c1ccccc1`, the survivor count (T/C endpoint: mean survival time, dose: 400.0 mg/kg/injection, schedule: Q01DX009 (ip), vehicle: Klucel (hydroxypropylcellulose) (HPC)) was 0 of 6.
As for `COc1ccc(CNCCCC2C3CCC(C3)C2CN)cc1` (centres undefined), under setting [8], the survivor count is listed as 6 of 6.
Consider `CN(C)CCN(Cc1ccc(Cl)cc1)c1ccccn1`, for which the survivor count (T/C endpoint: mean survival time, dose: 12.5 mg/kg/injection, schedule: Q01DX009 (ip), vehicle: saline with Tween-80) is 0 of 3; the survivor count (T/C endpoint: mean survival time, dose: 12.5 mg/kg/injection, schedule: Q01DX009 (ip), vehicle: saline) is recorded as 1 of 3; the survivor count under setting [9] was 0 of 3; the survivor count (T/C endpoint: mean survival time, dose: 50.0 mg/kg/injection, schedule: Q01DX009 (ip), vehicle: saline) is reported as 0 of 3.
`[CH3][Sn]([CH3])([Br])[CH2]CCCBr`: the survivor count under setting [9] is 0 of 3.
Turning to `CC(C)(C)OC(=O)NCCCC(=O)O`, the survivor count under setting [8] is listed as 5 of 6.
Turning to `CCCCCCCCCCCC(=O)/C=C/Sc1n[nH]c(=O)[nH]c1=O`, for the setting “T/C endpoint: mean survival time, dose: 200.0 mg/kg/injection, schedule: Q01DX005 (ip), vehicle: distilled water + Tween-80”, the survivor count is given as 2 of 6.
With `Nc1ccc(-c2c(N)ncc3ccccc23)cc1`, the survivor count by setting is: (T/C endpoint: mean survival time, dose: 100.0 mg/kg/injection, schedule: Q04DX003 (ip), vehicle: DMSO) 6 of 6; (T/C endpoint: mean survival time, dose: 200.0 mg/kg/injection, schedule: Q04DX003 (ip), vehicle: DMSO) 0 of 6; (T/C endpoint: mean survival time, dose: 400.0 mg/kg/injection, schedule: Q04DX003 (ip), vehicle: DMSO) 0 of 6.
